Laboratory results published in PubChem BioAssay AID2685 (National Center for Advancing Translational Sciences (NCATS), 2010).
Some of the results follow. Further columns of the screen follow, without active or inactive calls. Most of these compounds were active or inconclusive in the main read-out, so they are no random draw. Potencies come from curve fits of mixed quality, noted in brackets.

Assay: qHTS Assay for Lipid Storage Modulators in Drosophila S3 Cells;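 as to cell number change: cells counted by Cell Tracker Red CMTPX staining in the red channel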
Conditions: BODIPY lipid droplet fluorescence, 18-24 h; for cell number change: measured here: cell count max response, cells fed with added oleic acid
Outline: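 Laser-scanning cytometry quantifies lipid droplet accumulation (500–530 nm total intensity; droplet/cell object ratio) in oleic acid-fed (400 uM added) Drosophila S3 cells treated with a concentration series. 20 uM Triacsin C defined 100% inhibition.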

[1] = measured here: cell number channel AC50, cells fed with added oleic acid
[2] = measured here: lipid fluorescence (Fed channel) AC50, cells fed with added oleic acid

Compound	cell number change [%]	AC50 [1]	AC50 [2]
O=C(COc1ccc(Cl)cc1)N1CCN(S(=O)(=O)c2ccccc2)CC1	112	2.06 µM [rising, full curve]	4.11 µM [rising, partial curve]
Cc1cc(N)n2nc(-c3ccccc3)c(-c3ccccc3)c2n1	-15.3		0.366 µM [rising, full curve]
CCOC(=O)Cc1c(C)[nH]c(=S)[nH]c1=O	6.17		4.61 µM [falling, single point]
C[C@@]12C(=O)Nc3ccc(Br)cc3C(=O)N1[C@H]1c3cc(Cl)ccc3OC[C@@H]1[C@@H]2c1ccccc1	3.76	0.103 µM [falling, full curve, poor fit]	0.103 µM [falling, full curve, poor fit]
CC(=O)Nc1ccc(C2(O)COc3ccccc3O2)cc1 (centres undefined)	-6.63		
Cc1cc(C)c2c(CN3CCC(C)CC3)cc(=O)oc2c1C	116	23.1 µM [rising, partial curve]	29.1 µM [rising, single point]
COCc1c(C(=O)OCC(=O)N(C)C2CCS(=O)(=O)C2)oc2ccccc12 (centres undefined)	21.7		20.6 µM [rising, single point]
S=c1[nH]nc(CCc2ccccc2)n1Cc1ccccc1	1.62		6.51 µM [rising, single point]
CCC(C)/C(C)=N/NC(=O)C1COc2ccccc2O1 (centres undefined)	3.33		7.31 µM [rising, partial curve]
O=[N+]([O-])c1ccc(-c2cnc3ccccc3n2)cc1	-0.647		0.651 µM [falling, partial curve, poor fit]
COc1nc(-c2ccccc2)ccc1-c1noc(C)n1	52	23.1 µM [rising, partial curve, poor fit]	3.26 µM [rising, full curve]
O=C(C(Cl)Cl)N1CCN(c2ccccn2)CC1	-83.3	29.1 µM [falling, partial curve, poor fit]	
COc1ccc(OC)c(CN2CCCC(C(=O)N3CCCCC3)C2)c1 (centres undefined)	1.56		6.51 µM [falling, single point]
O=C(NCc1ccccc1)C1c2ccccc2Oc2ccccc21	49.2	2.06 µM [rising, partial curve, poor fit]	3.66 µM [falling, single point]
N/C(=N\S(=O)(=O)c1cc(C(F)(F)F)cc(C(F)(F)F)c1)c1ccc(Cl)cc1	-5.55	6.51 µM [falling, single point]	6.51 µM [falling, single point]
Cn1nc(C(=O)N2CCN(S(=O)(=O)c3ccc(Cl)cc3)CC2)c2ccccc2c1=O	-50.2	18.4 µM [falling, partial curve, poor fit]	29.1 µM [falling, single point]
CCn1cc(C(=O)NCc2cccnc2)c(=O)c2cc(F)c(N3CCN(C(=O)c4ccco4)CC3)cc21	14.9		6.51 µM [rising, single point]
COCCC(=O)NC1CCCc2c1cnn2-c1cccc(C)c1C (centres undefined)	-12.5		29.1 µM [falling, single point]

2 entries picked at random from those above:
Compound	cell number change [%]	AC50 [1]	AC50 [2]
CC(=O)Nc1ccc(C2(O)COc3ccccc3O2)cc1 (centres undefined)	-6.63		
CCC(C)/C(C)=N/NC(=O)C1COc2ccccc2O1 (centres undefined)	3.33		7.31 µM [rising, partial curve]

Later entries:

Compound	cell number change [%]	AC50 [1]	AC50 [2]
Cc1[nH]c(=O)[nH]c(=O)c1S(=O)(=O)N1CCN(c2ccccc2)CC1	-2.97		20.6 µM [falling, single point]
CC(=O)Oc1ccc(/C=N\NC(=O)c2cc3c(ccc4ccccc43)o2)cc1	-1.36		
Cc1ccnc(NC(=O)CC(c2ccccc2)c2ccccc2)n1	26.4		0.1 µM [rising, full curve, poor fit]
O=C(CCNS(=O)(=O)c1ccccc1)N1CCN(C(c2ccccc2)c2ccccc2)CC1	45.8	25.9 µM [rising, partial curve, poor fit]	6.51 µM [rising, single point]
CN(C(=O)c1ccccc1)c1ccccc1C(=O)NCCc1ccccc1	26.5		
CN(C)S(=O)(=O)c1cccc(NC(=O)c2n[nH]c(=O)c3ccccc23)c1	12.6		
Cc1nn(C)c(C(=O)N/N=C/c2cccc(Oc3ccccc3)c2)c1Br	-36.1	13 µM [falling, single point]	
COc1cccc(OC)c1C(=O)Nc1ccc(Br)c(C(=O)c2ccccc2)c1	41.6	1.84 µM [rising, full curve, poor fit]	
CCOc1ccc(N2C(=O)CC(NC3CCN(C(=O)c4ccc(F)cc4)CC3)C2=O)cc1 (centres undefined)	30.7	29.1 µM [rising, single point]	
CC(C)(CNC(=O)CO/N=C1/C=C2CCC3C(C(O)C[C@@]4(C)C3CC[C@]4(O)C(=O)CO)[C@@]2(C)CC1)C(O)C(=O)O (some centres undefined)	25		6.51 µM [rising, single point]
COc1cccc(C(=O)OCC(=O)NCCCc2ccccc2)c1	14.8		6.51 µM [rising, single point]
CCCCN(CCCC)S(=O)(=O)c1ccc(SCC(=O)OCC)c([N+](=O)[O-])c1	38.3	29.1 µM [rising, single point]	
CN(C)S(=O)(=O)c1ccc2nnn(OCC(=O)NC34CC5CC(CC(C5)C3)C4)c2c1	-25.8		13 µM [falling, partial curve]
COc1cccc(CN(Cc2ccccc2F)S(=O)(=O)c2ccc(S(=O)(=O)NCc3ccccc3)cc2)c1	3.12		
O=C(CSc1nc(-c2ccccc2)cs1)NC(=O)NCc1ccco1		5.8 µM [falling, partial curve, poor fit]	13 µM [falling, partial curve, poor fit]
O=S(=O)(NC1CCCCC1N1CCC(O)CC1)c1ccccc1 (centres undefined)	2.78		29.1 µM [falling, single point]
Cc1cc(-c2ccccc2)nc(Oc2cccc(C(F)(F)F)c2)c1S(C)(=O)=O	8.29		
CN(CC(=O)Nc1cccc(F)c1)C(=O)c1ccc(N2C(=O)c3ccccc3C2=O)cc1	65.9	20.6 µM [rising, single point]	
